Measurements taken from the supplement of paper PMC10849652.
Some of the results follow.

By UniProt entry, the sequences of proteins in these tests, tags left out. Where a name states a change or a piece, a line headed by the entry shows the natural chain unless it says otherwise.
UniProt Q14166: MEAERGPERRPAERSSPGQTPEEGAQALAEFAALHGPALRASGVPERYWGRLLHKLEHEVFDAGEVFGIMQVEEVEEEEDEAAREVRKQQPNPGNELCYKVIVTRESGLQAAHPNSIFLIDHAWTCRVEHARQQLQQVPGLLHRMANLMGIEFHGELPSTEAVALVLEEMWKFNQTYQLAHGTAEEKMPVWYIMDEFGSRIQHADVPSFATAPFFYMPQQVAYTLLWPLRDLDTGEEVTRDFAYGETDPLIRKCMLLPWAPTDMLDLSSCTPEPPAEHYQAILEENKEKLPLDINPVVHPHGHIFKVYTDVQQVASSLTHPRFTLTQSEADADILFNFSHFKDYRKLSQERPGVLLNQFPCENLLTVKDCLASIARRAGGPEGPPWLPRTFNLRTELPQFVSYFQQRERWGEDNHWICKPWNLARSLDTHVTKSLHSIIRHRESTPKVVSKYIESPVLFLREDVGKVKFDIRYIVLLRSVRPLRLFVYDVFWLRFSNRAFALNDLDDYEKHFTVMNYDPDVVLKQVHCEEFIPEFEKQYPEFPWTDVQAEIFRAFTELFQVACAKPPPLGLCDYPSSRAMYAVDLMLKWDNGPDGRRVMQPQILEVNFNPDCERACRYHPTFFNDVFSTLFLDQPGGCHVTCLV
UniProt Q7L0Y3: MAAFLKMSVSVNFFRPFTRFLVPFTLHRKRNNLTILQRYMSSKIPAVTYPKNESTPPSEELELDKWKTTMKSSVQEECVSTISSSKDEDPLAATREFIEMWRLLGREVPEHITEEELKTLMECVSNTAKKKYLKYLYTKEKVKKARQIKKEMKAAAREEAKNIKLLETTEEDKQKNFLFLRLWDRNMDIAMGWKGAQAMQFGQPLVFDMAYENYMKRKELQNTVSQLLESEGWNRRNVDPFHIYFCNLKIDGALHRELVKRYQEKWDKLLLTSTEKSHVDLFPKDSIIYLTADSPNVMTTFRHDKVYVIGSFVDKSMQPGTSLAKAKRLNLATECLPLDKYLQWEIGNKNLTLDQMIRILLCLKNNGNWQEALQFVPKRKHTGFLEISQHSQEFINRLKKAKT
UniProt Q16762: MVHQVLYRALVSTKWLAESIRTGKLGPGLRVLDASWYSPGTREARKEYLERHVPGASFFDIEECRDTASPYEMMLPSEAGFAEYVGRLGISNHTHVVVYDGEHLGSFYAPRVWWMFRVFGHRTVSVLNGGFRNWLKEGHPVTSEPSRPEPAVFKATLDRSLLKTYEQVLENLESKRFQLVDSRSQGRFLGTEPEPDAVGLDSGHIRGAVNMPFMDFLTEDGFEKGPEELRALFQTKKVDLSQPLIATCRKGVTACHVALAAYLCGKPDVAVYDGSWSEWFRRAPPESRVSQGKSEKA
UniProt Q9UL33, whole entry, looked up: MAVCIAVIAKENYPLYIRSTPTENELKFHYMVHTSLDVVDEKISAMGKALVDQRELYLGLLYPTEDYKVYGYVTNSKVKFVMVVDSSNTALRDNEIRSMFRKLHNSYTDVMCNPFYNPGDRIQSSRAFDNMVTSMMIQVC
UniProt Q32P41: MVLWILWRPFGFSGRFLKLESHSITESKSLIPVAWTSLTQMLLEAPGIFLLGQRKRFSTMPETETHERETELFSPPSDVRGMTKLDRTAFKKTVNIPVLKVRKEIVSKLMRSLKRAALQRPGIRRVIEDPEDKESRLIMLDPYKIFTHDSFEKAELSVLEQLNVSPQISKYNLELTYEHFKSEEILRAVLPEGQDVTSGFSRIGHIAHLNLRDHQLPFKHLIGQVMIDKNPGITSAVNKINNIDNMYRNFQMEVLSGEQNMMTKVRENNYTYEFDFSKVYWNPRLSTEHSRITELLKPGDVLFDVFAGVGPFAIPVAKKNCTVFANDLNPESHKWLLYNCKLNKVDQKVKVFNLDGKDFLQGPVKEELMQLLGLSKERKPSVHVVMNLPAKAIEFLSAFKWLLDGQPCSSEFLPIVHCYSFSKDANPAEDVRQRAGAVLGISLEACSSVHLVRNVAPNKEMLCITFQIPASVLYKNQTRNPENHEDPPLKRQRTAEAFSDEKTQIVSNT
UniProt Q7Z6J9: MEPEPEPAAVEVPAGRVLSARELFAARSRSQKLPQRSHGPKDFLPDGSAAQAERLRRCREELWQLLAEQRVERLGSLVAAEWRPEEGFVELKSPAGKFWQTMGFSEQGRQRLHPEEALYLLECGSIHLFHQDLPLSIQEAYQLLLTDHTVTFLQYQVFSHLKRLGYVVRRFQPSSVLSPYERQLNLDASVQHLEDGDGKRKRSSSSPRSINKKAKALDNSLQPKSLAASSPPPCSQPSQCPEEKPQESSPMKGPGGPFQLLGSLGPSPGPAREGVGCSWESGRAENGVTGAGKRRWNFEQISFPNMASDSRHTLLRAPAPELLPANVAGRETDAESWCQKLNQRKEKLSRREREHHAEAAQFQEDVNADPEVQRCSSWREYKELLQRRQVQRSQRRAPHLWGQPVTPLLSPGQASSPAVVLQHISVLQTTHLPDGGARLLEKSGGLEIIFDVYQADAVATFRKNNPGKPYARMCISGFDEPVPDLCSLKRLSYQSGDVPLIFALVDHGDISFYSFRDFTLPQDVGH
UniProt Q12815: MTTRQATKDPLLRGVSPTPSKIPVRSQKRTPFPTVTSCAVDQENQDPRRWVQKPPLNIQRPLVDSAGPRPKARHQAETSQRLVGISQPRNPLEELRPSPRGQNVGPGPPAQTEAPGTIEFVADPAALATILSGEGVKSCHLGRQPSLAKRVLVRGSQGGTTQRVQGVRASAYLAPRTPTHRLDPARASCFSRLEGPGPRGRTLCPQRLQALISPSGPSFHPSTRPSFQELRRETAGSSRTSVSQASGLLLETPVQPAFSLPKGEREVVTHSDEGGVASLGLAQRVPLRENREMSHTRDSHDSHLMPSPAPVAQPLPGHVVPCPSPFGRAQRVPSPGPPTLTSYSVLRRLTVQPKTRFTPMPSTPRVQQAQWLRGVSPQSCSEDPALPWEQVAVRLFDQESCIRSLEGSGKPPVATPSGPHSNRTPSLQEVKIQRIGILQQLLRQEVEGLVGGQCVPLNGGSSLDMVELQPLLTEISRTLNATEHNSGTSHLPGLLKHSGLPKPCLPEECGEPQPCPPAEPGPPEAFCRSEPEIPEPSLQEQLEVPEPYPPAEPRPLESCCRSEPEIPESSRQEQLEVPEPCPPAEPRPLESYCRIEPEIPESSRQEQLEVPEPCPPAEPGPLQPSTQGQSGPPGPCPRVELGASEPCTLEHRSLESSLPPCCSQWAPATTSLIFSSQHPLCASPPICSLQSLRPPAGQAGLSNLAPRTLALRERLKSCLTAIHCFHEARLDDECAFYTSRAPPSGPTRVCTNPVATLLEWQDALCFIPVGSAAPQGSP
UniProt Q15642: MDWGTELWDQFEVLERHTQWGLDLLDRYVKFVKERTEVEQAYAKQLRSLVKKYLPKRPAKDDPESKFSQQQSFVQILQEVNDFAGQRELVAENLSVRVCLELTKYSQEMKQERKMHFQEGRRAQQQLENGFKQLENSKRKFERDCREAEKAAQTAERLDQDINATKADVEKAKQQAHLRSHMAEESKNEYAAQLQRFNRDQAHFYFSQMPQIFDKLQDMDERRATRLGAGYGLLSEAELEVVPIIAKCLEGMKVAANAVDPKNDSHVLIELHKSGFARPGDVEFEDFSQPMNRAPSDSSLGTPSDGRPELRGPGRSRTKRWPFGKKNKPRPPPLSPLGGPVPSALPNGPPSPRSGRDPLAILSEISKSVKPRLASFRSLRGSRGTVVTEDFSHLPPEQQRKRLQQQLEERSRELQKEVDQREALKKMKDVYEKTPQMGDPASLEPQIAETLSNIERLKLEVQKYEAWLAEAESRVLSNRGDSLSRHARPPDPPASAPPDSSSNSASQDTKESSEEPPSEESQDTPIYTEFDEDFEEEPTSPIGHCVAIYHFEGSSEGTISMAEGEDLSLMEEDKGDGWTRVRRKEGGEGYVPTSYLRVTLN
UniProt Q9BRZ2: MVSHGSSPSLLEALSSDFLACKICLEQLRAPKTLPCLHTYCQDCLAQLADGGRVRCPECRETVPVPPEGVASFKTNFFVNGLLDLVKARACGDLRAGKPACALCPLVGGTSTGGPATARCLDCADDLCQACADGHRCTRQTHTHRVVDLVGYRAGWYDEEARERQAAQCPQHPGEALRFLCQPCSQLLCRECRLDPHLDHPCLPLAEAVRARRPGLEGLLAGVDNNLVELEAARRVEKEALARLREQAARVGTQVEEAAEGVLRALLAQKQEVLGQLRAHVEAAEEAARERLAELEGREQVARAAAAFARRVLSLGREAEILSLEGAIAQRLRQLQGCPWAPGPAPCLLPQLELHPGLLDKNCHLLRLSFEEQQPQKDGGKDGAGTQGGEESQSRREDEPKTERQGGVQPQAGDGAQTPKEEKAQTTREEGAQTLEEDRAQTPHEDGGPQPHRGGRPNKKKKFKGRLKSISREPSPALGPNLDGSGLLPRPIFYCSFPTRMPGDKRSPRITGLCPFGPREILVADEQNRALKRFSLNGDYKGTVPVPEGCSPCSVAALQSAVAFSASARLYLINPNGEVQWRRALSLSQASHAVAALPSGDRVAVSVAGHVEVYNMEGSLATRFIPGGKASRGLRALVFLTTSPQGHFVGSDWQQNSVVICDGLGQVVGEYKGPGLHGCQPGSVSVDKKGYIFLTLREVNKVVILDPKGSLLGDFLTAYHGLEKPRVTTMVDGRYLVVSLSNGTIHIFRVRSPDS
UniProt Q9NUP7: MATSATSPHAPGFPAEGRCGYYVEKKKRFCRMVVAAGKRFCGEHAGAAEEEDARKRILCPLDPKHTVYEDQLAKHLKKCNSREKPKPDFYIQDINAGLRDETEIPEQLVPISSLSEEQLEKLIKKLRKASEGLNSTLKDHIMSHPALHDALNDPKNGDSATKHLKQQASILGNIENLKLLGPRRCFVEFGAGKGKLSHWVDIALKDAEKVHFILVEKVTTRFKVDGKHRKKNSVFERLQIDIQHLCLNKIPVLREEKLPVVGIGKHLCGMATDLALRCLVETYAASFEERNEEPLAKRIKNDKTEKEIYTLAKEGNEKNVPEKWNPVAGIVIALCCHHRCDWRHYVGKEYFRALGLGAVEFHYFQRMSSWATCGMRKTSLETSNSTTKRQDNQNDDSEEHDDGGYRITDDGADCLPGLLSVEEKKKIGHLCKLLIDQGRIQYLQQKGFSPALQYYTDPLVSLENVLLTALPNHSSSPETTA
UniProt O75157: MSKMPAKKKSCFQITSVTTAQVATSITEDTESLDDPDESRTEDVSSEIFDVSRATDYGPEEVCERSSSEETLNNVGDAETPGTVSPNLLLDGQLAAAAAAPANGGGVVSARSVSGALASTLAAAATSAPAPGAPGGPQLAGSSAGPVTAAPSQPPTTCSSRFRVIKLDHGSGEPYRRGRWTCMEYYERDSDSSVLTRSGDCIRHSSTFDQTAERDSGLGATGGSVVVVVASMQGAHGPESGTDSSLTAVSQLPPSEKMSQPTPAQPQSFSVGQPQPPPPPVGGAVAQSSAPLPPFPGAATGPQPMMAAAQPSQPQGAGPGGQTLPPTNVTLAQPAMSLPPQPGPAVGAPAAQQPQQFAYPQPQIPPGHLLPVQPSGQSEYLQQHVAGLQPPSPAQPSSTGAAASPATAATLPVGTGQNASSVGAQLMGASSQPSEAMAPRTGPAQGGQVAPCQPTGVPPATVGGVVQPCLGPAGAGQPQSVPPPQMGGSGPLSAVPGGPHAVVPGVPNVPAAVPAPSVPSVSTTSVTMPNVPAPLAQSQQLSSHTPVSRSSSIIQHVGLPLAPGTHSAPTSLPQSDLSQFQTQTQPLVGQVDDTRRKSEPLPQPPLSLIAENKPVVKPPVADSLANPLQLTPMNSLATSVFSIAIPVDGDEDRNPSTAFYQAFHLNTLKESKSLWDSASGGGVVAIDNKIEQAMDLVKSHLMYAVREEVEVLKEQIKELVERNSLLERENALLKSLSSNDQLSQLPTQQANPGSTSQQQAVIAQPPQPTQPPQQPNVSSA
UniProt Q15645: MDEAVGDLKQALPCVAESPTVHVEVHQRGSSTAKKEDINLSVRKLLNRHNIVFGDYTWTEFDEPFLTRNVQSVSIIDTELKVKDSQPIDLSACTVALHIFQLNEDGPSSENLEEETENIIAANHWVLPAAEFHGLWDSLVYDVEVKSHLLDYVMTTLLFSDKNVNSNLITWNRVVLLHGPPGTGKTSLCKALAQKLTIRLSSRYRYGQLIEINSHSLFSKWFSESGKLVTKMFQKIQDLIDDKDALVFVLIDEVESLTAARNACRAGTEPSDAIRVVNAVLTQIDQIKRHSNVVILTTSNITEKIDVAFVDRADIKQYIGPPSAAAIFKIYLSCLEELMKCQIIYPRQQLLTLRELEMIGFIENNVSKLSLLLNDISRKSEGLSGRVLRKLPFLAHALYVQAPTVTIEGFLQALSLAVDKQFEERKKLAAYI

Experiments:
Experiment in all cases: log2 fold change, soluble protein after heating vs DMSO (PISA); higher = thermal stabilisation; K562 lysate, 10 uM; active = over 0.2 and 3.5 SD of the protein, either way, in both replicates (recomputed)
erlotinib = compound: C#Cc1cccc(Nc2ncnc3cc(OCCOC)c(OCCOC)cc23)c1 [erlotinib]
Summary of the method: (§1)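 Log-two fold change in thermal stability relative to solvent controls is reported from duplicates. For each sample, crude K562 extract from dounce-homogenised pellets in PBS pH 7.4 with 1 mM MgCl2, at 1 mg/mL protein, was treated with 10 μM compound for 30 min. Aliquots heated for 3 min across 48°C-58°C were pooled, brought to 0.5% NP-40 at 4°C and cleared at 21,000xg for 90 min. The supernatant was quantified by TMTpro 16plex LC-MS/MS with channel sums equalised.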

[1] = compound: C/C(=N\NC(=O)C1=CC(=CC=C1)S(=O)(=O)N2CCOCC2)/C3=C(C=CC(=C3)Cl)O
Summary of the method: as §1

[2] = compound: C1=CC(=CC=C1C2=NC3=C(N2)C=C(C=C3)C(=O)N)OC4=CC=C(C=C4)Cl
Summary of the method: as §1

[3] = compound: C1=CC2=C(C=CC(=C2)/C=C\3/C(=O)NC(=NCC4=CC=CS4)S3)N=C1
Summary of the method: as §1

[4] = compound: C1=CC2=NC=CN=C2C=C1/C=C/3\C(=O)NC(=O)S3
Summary of the method: as §1

[5] = compound: C1=CC=C(C=C1)C2=NC(=C(N2)C3=CC=NC=C3)C4=CC(=C(C=C4)Cl)O
Summary of the method: as §1

[6] = compound: C1=CC=C2C(=C1)C3=NNC4=CC=CC(=C43)C2=O
Summary of the method: as §1

[7] = compound: C1CCN(C1)C(=O)NC2=CC=CC(=C2)NC3=NC=C(C(=N3)NCCC4=CN=CN4)Br
Summary of the method: as §1

[8] = compound: C1CN(CCC1(CC2=CC=C(C=C2)Cl)N)C3=NC=NC4=C3C=CN4
Summary of the method: as §1

IRAK-1-4 Inhibitor I = compound: C1COCCN1CCN2C3=CC=CC=C3N=C2NC(=O)C4=CC(=CC=C4)[N+](=O)[O-] [IRAK-1-4 Inhibitor I]
Summary of the method: as §1

Measured: log2 fold change

TTLL12 (UniProt Q14166)
inactive: erlotinib 0.006 | [1] 0.049 | [2] -0.047 | [3] 0.036 | [4] 0.027 | [5] 0.005 | [6] -0.023 | [7] 0 | [8] 0.021 | IRAK-1-4 Inhibitor I -0.016

TRIM23 (UniProt P36406)
inactive: erlotinib -0.044 | [1] -0.022 | [2] 0.037 | [3] 0.014 | [4] 0.034 | [5] 0.493 | [6] -0.011 | [7] -0.017 | [8] 0.105 | IRAK-1-4 Inhibitor I 0.183

TRIM33 (UniProt H0Y612)
inactive: erlotinib -0.006 | [1] -0.002 | [2] 0.05 | [3] -0.126 | [4] -0.071 | [5] -0.01 | [6] -0.009 | [7] -0.065 | [8] -0.023 | IRAK-1-4 Inhibitor I 0.176

TRMT10C (UniProt Q7L0Y3)
inactive: erlotinib 0.008 | [1] 0.008 | [2] 0.046 | [3] -0.002 | [4] -0.005 | [5] 0.021 | [6] -0.012 | [7] -0.027 | [8] 0.032 | IRAK-1-4 Inhibitor I -0.023

TRMT61B (UniProt Q9BVS5)
inactive: erlotinib 0.03 | [1] -0.02 | [2] 0.025 | [3] 0.016 | [4] -0.015 | [5] -0.014 | [6] -0.003 | [7] 0.067 | [8] 0.025 | IRAK-1-4 Inhibitor I 0.019

TTC38 (UniProt Q5R3I4)
inactive: erlotinib 0.037 | [1] 0.015 | [2] 0.009 | [3] 0.039 | [4] 0.007 | [5] 0.035 | [6] -0.022 | [7] -0.003 | [8] 0.068 | IRAK-1-4 Inhibitor I -0.004

Two records picked at random from the list so far:
TRMT61B (UniProt Q9BVS5)
inactive: erlotinib 0.03 | [1] -0.02 | [2] 0.025 | [3] 0.016 | [4] -0.015 | [5] -0.014 | [6] -0.003 | [7] 0.067 | [8] 0.025 | IRAK-1-4 Inhibitor I 0.019

TRMT10C (UniProt Q7L0Y3)
inactive: erlotinib 0.008 | [1] 0.008 | [2] 0.046 | [3] -0.002 | [4] -0.005 | [5] 0.021 | [6] -0.012 | [7] -0.027 | [8] 0.032 | IRAK-1-4 Inhibitor I -0.023

Continuation.

TST (UniProt Q16762)
inactive: erlotinib -0.045 | [1] -0.046 | [2] 0.063 | [3] 0.152 | [4] 0.093 | [5] -0.017 | [6] -0.021 | [7] 0.002 | [8] -0.051 | IRAK-1-4 Inhibitor I -0.044

TRAPPC2L (UniProt Q9UL33)
inactive: erlotinib -0.013 | [1] 0.036 | [2] -0.018 | [3] -0.025 | [4] -0.019 | [5] 0.021 | [6] -0.008 | [7] -0.022 | [8] 0.026 | IRAK-1-4 Inhibitor I 0.002

TTC19 (UniProt Q6DKK2)
inactive: erlotinib 0.013 | [1] 0.081 | [2] 0.007 | [3] 0.004 | [4] 0.011 | [5] 0.019 | [6] 0.009 | [7] -0.006 | [8] 0.018 | IRAK-1-4 Inhibitor I -0.012

TRMT5 (UniProt Q32P41)
inactive: erlotinib 0.007 | [1] 0.077 | [2] -0.071 | [3] 0.076 | [4] 0.016 | [5] -0.016 | [6] -0.1 | [7] 0.014 | [8] 0.012 | IRAK-1-4 Inhibitor I -0.026

TSR1 (UniProt Q2NL82)
inactive: erlotinib 0.037 | [1] 0.023 | [2] -0.012 | [3] 0.032 | [4] -0.005 | [5] 0.013 | [6] -0.001 | [7] -0.001 | [8] 0.013 | IRAK-1-4 Inhibitor I -0.008

TRAF3IP1 (UniProt Q8TDR0)
inactive: erlotinib -0.02 | [1] -0.076 | [2] 0.01 | [3] 0.117 | [4] -0.114 | [5] 0.038 | [6] -0.004 | [7] -0.056 | [8] -0.048 | IRAK-1-4 Inhibitor I -0.005

TTC1 (UniProt Q99614)
inactive: erlotinib -0.026 | [1] -0.05 | [2] 0.021 | [3] 0.004 | [4] -0.044 | [5] 0.011 | [6] 0.004 | [7] -0.028 | [8] -0.024 | IRAK-1-4 Inhibitor I -0.024

TSEN54 (UniProt Q7Z6J9)
inactive: erlotinib 0.066 | [1] 0.016 | [2] 0.031 | [3] 0.073 | [4] -0.027 | [5] 0.018 | [6] -0.076 | [7] -0.033 | [8] 0.045 | IRAK-1-4 Inhibitor I -0.025

TROAP (UniProt Q12815)
inactive: erlotinib -0.023 | [1] -0.02 | [2] 0.028 | [3] -0.036 | [4] -0.054 | [5] 0.017 | [6] -0.027 | [7] 0.035 | [8] 0.104 | IRAK-1-4 Inhibitor I -0.011

TRIP10 (UniProt Q15642)
inactive: erlotinib -0.02 | [1] 0.028 | [2] -0.029 | [3] 0.002 | [4] -0.028 | [5] 0.021 | [6] -0.055 | [7] 0.044 | [8] -0.028 | IRAK-1-4 Inhibitor I -0.04

TRIM58 (UniProt Q8NG06)
inactive: erlotinib -0.027 | [1] 0.076 | [2] -0.038 | [3] 0.051 | [4] 0.012 | [5] 0.006 | [6] -0.112 | [7] -0.041 | [8] 0.069 | IRAK-1-4 Inhibitor I -0.024

TRIM56 (UniProt Q9BRZ2)
inactive: erlotinib 0.053 | [1] -0.021 | [2] 0.021 | [3] -0.049 | [4] 0.141 | [5] -0.013 | [6] 0.033 | [7] 0.039 | [8] 0.003 | IRAK-1-4 Inhibitor I 0.062

TRIM65 (UniProt Q6PJ69)
inactive: erlotinib 0.047 | [1] -0.072 | [2] -0.008 | [3] 0.021 | [4] -0.005 | [5] -0.044 | [6] -0.054 | [7] 0.026 | [8] 0.007 | IRAK-1-4 Inhibitor I -0.025

TRMT13 (UniProt Q9NUP7)
inactive: erlotinib 0.023 | [1] 0.032 | [2] 0.087 | [3] -0.045 | [4] -0.007 | [5] 0.045 | [6] -0.04 | [7] -0.018 | [8] -0.044 | IRAK-1-4 Inhibitor I 0.014

TRIM28 (UniProt Q13263)
inactive: erlotinib -0.019 | [1] 0.009 | [2] -0.001 | [3] -0.008 | [4] -0.003 | [5] -0.001 | [6] 0.005 | [7] 0.006 | [8] 0.002 | IRAK-1-4 Inhibitor I -0.003

TRIM21 (UniProt P19474)
inactive: erlotinib 0.048 | [1] -0.018 | [2] -0.057 | [3] 0.12 | [4] -0.02 | [5] -0.06 | [6] -0.089 | [7] -0.017 | [8] -0.012 | IRAK-1-4 Inhibitor I 0.041

TRIM5 (UniProt Q9C035)
inactive: erlotinib 0.019 | [1] -0.081 | [2] -0.009 | [3] 0.045 | [4] -0.023 | [5] 0.04 | [6] -0.126 | [7] -0.063 | [8] -0.073 | IRAK-1-4 Inhibitor I -0.007

TTK (UniProt P33981)
inactive: erlotinib -0.032 | [1] -0.1 | [2] 0.09 | [3] -0.034 | [4] 0.004 | [5] 0.039 | [6] 0.258 | [7] 0.054 | [8] -0.039 | IRAK-1-4 Inhibitor I -0.032

TSC22D2 (UniProt O75157)
inactive: erlotinib -0.028 | [1] 0.016 | [2] 0.043 | [3] -0.018 | [4] -0.01 | [5] -0.011 | [6] 0.017 | [7] -0.027 | [8] 0.031 | IRAK-1-4 Inhibitor I 0.005

TTC17 (UniProt Q96AE7)
inactive: erlotinib 0.019 | [1] -0.067 | [2] -0.002 | [3] -0.008 | [4] 0.076 | [5] 0.003 | [6] -0.017 | [7] -0.023 | [8] 0 | IRAK-1-4 Inhibitor I 0.029

TRIP6 (UniProt Q15654)
inactive: erlotinib -0.017 | [1] -0.02 | [2] 0.019 | [3] 0.002 | [4] 0.028 | [5] 0.056 | [6] 0.002 | [7] -0.027 | [8] 0.012 | IRAK-1-4 Inhibitor I 0.023

TRIP13 (UniProt Q15645)
inactive: erlotinib 0.034 | [1] -0.117 | [2] 0.007 | [3] 0.04 | [4] -0.034 | [5] 0.009 | [6] -0.038 | [7] 0 | [8] -0.002 | IRAK-1-4 Inhibitor I 0.005

TRIM24 (UniProt O15164)
inactive: erlotinib 0.111 | [1] -0.011 | [2] -0.026 | [3] 0.025 | [4] -0.018 | [5] 0.016 | [6] -0.02 | [7] -0.014 | [8] -0.024 | IRAK-1-4 Inhibitor I 0.025

TRIOBP (UniProt Q9H2D6)
inactive: erlotinib -0.06 | [1] 0.048 | [2] -0.052 | [3] -0.067 | [4] -0.012 | [5] -0.011 | [6] -0.049 | [7] 0.051 | [8] -0.007 | IRAK-1-4 Inhibitor I 0.009
